Assay results reported in article PMC4365481.

Molecular target: His6-GluN1 cytoplasmic domain (residues 834–938) (UniProt P35439)
Test: ELISA; 10 µg/ml cleaved ICAM-5 WT, mutated or His6-GluN1 cytoplasmic protein coated on 96-well plates, blocked with 5% BSA (ICAM-5) or 2% sucrose/0.1% BSA/0.9% NaCl (His6-GluN1cyto); GST-α-actinin R proteins incubated 1 h; detected with peroxidase-conjugated GST antibody, absorbance at 492 nm; values normalized to BSA binding; both purified

binding: binds
Substance: GST-α-actinin R1-R4 (the whole rod domain) (from UniProt P05094) (domain or fragment)

Results are given in words; binding and its absence hold for the method and conditions named. Binding calls can cover weak binding; strength is not graded here.
